Reference: article PMC10879184
These are yes or no findings as the source states them, for the method shown. In cells and extracts the contact can be indirect. Binding calls can cover weak binding; strength is not graded here. Where a sequence is shown, tags or fusion partners need not be part of it.

Target: HA-Gli2(P1-6A), overexpressed in HEK293T (UniProt Q0VGT2)
Assay: co-IP; HEK293T cells co-transfected with HA-tagged Gli construct and EGFP-tagged partner(s) (Sec3, Sec5, Sec8 together in Fig. 2c, f; single subunits in Fig. 2d; Rab/Arf in Fig. 7a); anti-HA magnetic beads; lysis buffer 50 mM Tris pH 7.4, 1% NP-40, 150 mM NaCl, 0.25% sodium deoxycholate; overnight 4 °C; western blot

| Molecule | binding |
| --- | --- |
| EGFP-tagged Arf4 (from UniProt P61750 1-180) | binds |
| EGFP-tagged Rab18 (from UniProt P35293 1-206) | binds |
| EGFP-tagged Rab23 (protein, UniProt P35288 1-237) MLEEDMEVAIKMVVVGNGAVGKSSMIQRYCKGIFTKDYKKTIGVDFLERQIQVNDEDVRLMLWDTAGQEEFDAITKAYYRGAQACVLVFSTTDRESFEAISSWREKVVAEVGDIPTALVQNKIDLLDDSCIKNEEAEGLAKRLKLRFYRTSVKEDLNVSEVFKYLAEKHLQKLKQQITEDPEQTHSSSNKIGVFNASVGSHLGQNSSSLNGGDVINLRPNKQRTKRTRNPFSSCSVP | binds |
